Source: PubChem BioAssay AID504791 (Drosophila RNAi Screening Center, 2011)

Test: 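Genes of the fly required for silencing by miRNA, siRNA or endo-siRNA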 (primary screen)
Cell system: Drosophila S2-derived reporter cells
Reagent: long dsRNA against Drosophila genes, about 150-250 ng dsRNA per well (siRNA assay); about 80-120 ng (miRNA assay)
Time to read-out: about 5 days (siRNA assay); about 4 days (miRNA assay)
Conditions: copper sulfate induction of reporters: 25 µM (siRNA assay); 200 mM stated (miRNA assay), 1-2 days before reading
Measured: 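Per-well ratio of Renilla over firefly light, expressed relative to that plate's average ratio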
Hit rule: 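First-pass picks had plate-scaled ratios over 1.5 for the siRNA assay, over 1.6 for the miRNA assay, or under 0.6; two distinct dsRNAs had to score alike on retest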
The deposit covers about 23,000 reagents; shown is a random part of those with a known target gene and a result. Over the whole deposit, 199 (0.86%) are marked active. 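Plate-scaled ratios behind the calls are not deposited; printed light signals are raw; many rows marked increased or decreased are still called inactive.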 Names joined by + are all predicted targets of the reagent. The record does not give: the direction of the score.

no.	Target gene	DRSC id	stable siRNA reporter change	miRNA reporter change	stable assay Renilla, run 1 (luminescence)	stable assay firefly, run 1 (luminescence)	Call
1	CG9988 (GeneID 43388)	DRSC16587			5520	3.01e5	inactive
2	kek5 (GeneID 32930)	DRSC19438			4835	2.56e5	inactive
3	Cnep1r2 (GeneID 39204)	DRSC10950			9572	5.73e5	inactive
4	CG42516 + Pbp49	DRSC06073			9419	3.49e5	inactive
5	Tapdelta (GeneID 45680)	DRSC05946			8111	3.89e5	inactive
6	CG34334 (GeneID 5740122)	DRSC20643			5750	4.16e5	inactive
7	CG5882 (GeneID 43269)	DRSC15907			6391	3.27e5	inactive
8	Dph1 (GeneID 39317)	DRSC09851			8721	4.39e5	inactive
9	CG3842 (GeneID 31576)	DRSC18326			6407	4.39e5	inactive
10	CG14563 (GeneID 40435)	DRSC11724			6066	4.44e5	inactive
11	MICU3 (GeneID 42357)	DRSC13381			4875	3.60e5	inactive
12	MICU3 (GeneID 42357)	DRSC15613			8074	2.78e5	inactive
13	az2 (GeneID 35682)	DRSC07580			24424	2.08e6	inactive
14	CG3309 (GeneID 31450)	DRSC18301			5507	4.60e5	inactive
15	CG44325 (GeneID 31831)	DRSC18423			5799	4.02e5	inactive
16	CG9903 (GeneID 32621)	DRSC20213			6123	5.24e5	inactive
17	CG31031 (retired record) (GeneID 318564)	DRSC13964			5312	3.91e5	inactive
18	GstO2 (GeneID 38974)	DRSC10691			8226	4.35e5	inactive
19	CG1971 (GeneID 43755)	DRSC15406			7804	4.45e5	inactive
20	papi (GeneID 33401)	DRSC00693			14413	8.09e5	inactive
21	Dic4 (GeneID 40039)	DRSC10317			6878	4.52e5	inactive
22	CG8665 (GeneID 35407)	DRSC03098			6555	4.22e5	inactive
23	Hil (GeneID 37328)	DRSC05989			11023	4.51e5	inactive
24	Hil (GeneID 37328)	DRSC06395			5367	4.08e5	inactive
25	lwr (GeneID 33226)	DRSC00828	reporter ratio lowered past the hit cutoff		8486	5.46e5	active
26	side-IV + CG17025 (retired record)	DRSC15168			7378	4.32e5	inactive
27	Gr32a (GeneID 34545)	DRSC02400			7062	3.24e5	inactive
28	Prx3 (GeneID 42109)	DRSC15883			6520	2.81e5	inactive
29	Rack1 (GeneID 34070)	DRSC03405			5811	3.33e5	inactive
30	sni (GeneID 31761)	DRSC17770			7587	5.67e5	inactive
31	ArfGAP1 (GeneID 39417)	DRSC11173			6628	4.20e5	inactive
32	mav (GeneID 43804)	DRSC17149			7255	4.13e5	inactive
33	CG34423 + Mthfs	DRSC04088			5939	3.44e5	inactive
34	GstD4 (GeneID 48337)	DRSC16685			6996	4.87e5	inactive
35	twy (GeneID 39330)	DRSC10562			6891	3.98e5	inactive
36	Fum4 (GeneID 318995)	DRSC22577			4667	4.68e5	inactive
37	fd59A (GeneID 37631)	DRSC04685			32964	3.21e5	inactive
38	CG33170 (GeneID 326267)	DRSC11854			8771	3.88e5	inactive
39	CG33170 (GeneID 326267)	DRSC22366			9570	6.65e5	inactive
40	Or43b (GeneID 35743)	DRSC07486			6567	3.74e5	inactive
41	CG10950 (GeneID 36942)	DRSC06020			7196	3.03e5	inactive
42	Ocrl (GeneID 31157)	DRSC18576			6559	3.49e5	inactive
43	CG31806 (GeneID 261615)	DRSC02787			6551	3.51e5	inactive
44	Fancm (GeneID 42543)	DRSC16348			9323	4.97e5	inactive
45	CG7691 (GeneID 42228)	DRSC16287			6660	3.54e5	inactive
46	CG34178 + CG34177	DRSC00351			7506	4.21e5	inactive
47	Srp14 (GeneID 42436)	DRSC15797			6759	3.53e5	inactive
48	Rint1 (GeneID 38807)	DRSC11010			6740	2.65e5	inactive
49	Ilk (GeneID 53573)	DRSC11868			4668	4.74e5	inactive
50	CG6362 (GeneID 37032)	DRSC07413			5040	3.61e5	inactive
51	hkb (GeneID 40549)	DRSC12377			3912	3.96e5	inactive
52	CG4615 (GeneID 31656)	DRSC17491			6452	5.97e5	inactive
53	CG4615 (GeneID 31656)	DRSC18376			7580	5.44e5	inactive
54	BTBD9 (GeneID 32000)	DRSC18148			4852	3.69e5	inactive
55	BTBD9 (GeneID 32000)	DRSC22371		reporter ratio raised past the hit cutoff	8353	4.14e5	inactive
56	mew (GeneID 32275)	DRSC18971			5280	4.25e5	inactive
57	mew (GeneID 32275)	DRSC20352			5887	4.65e5	inactive
58	Pef (GeneID 36111)	DRSC06695			7727	3.31e5	inactive
59	Spn27A (GeneID 45815)	DRSC03608			7150	3.87e5	inactive
60	RunxA (GeneID 4379817)	DRSC20400			3731	3.20e5	inactive
61	RunxA (GeneID 4379817)	DRSC20498			5371	3.03e5	inactive
62	RunxA (GeneID 4379817)	DRSC20524			3932	3.95e5	inactive
63	RunxA (GeneID 4379817)	DRSC21915			9542	4.84e5	inactive
64	CG10254 (GeneID 42793)	DRSC14153			10927	3.72e5	inactive
65	Osi4 (GeneID 40758)	DRSC12134			7434	3.94e5	inactive
66	ppk15 (GeneID 43188)	DRSC14733			8711	4.06e5	inactive
67	mthl5 (GeneID 41438)	DRSC16155			8078	4.17e5	inactive
68	CG11504 (GeneID 43557)	DRSC14318			8218	4.68e5	inactive
69	pasha (GeneID 43728)	DRSC15295		reporter ratio raised past the hit cutoff	7894	4.17e5	inactive
70	CG14515 (GeneID 43454)	DRSC14867			6076	5.12e5	inactive
71	CkIIbeta (GeneID 32132)	DRSC20230	reporter ratio lowered past the hit cutoff		3732	5.19e5	active
72	CG10384 (GeneID 37567)	DRSC03933			5904	3.88e5	inactive
73	CG10384 (GeneID 37567)	DRSC04067			5508	3.44e5	inactive
74	ppk19 (GeneID 43489)	DRSC15321			7228	4.59e5	inactive
75	ETHR (GeneID 42523)	DRSC15915			9150	4.60e5	inactive
76	CG15432 (GeneID 33647)	DRSC00447			8039	4.38e5	inactive
77	mRpS16 (GeneID 36570)	DRSC07152			6442	4.63e5	inactive
78	CG17944 (GeneID 40885)	DRSC12572			6736	5.16e5	inactive
79	CG6290 (GeneID 32827)	DRSC19979			6896	4.11e5	inactive
80	scw (GeneID 46000)	DRSC01711			4244	2.90e5	inactive
81	scw (GeneID 46000)	DRSC21252			6442	6.41e5	inactive
82	CG12985 (GeneID 32774)	DRSC19505			4587	4.06e5	inactive
83	CG33251 (retired record) + CG9915	DRSC20217			4639	3.06e5	inactive
84	Adk2 (GeneID 39479)	DRSC09827			8588	4.75e5	inactive
85	Hsp26 (GeneID 39075)	DRSC11189			7282	3.24e5	inactive
86	CG43737 (GeneID 32448)	DRSC19609			5556	4.03e5	inactive
87	CG15894 (GeneID 31574)	DRSC18098			5323	4.12e5	inactive
88	CG15894 (GeneID 31574)	DRSC18099			5160	2.83e5	inactive
89	c-cup (GeneID 33360)	DRSC00458			9028	6.13e5	inactive
90	apn (GeneID 41631)	DRSC15124			7066	5.00e5	inactive
91	uri (GeneID 37924)	DRSC04111			34725	1.23e6	inactive
92	RtcB (GeneID 35220)	DRSC03280			8599	4.55e5	inactive
93	CG11670 (GeneID 41608)	DRSC14342			6558	3.71e5	inactive
94	sqz (GeneID 42300)	DRSC16980			8050	3.99e5	inactive
95	CG9757 (GeneID 41662)	DRSC16557			6814	4.13e5	inactive
96	CG9757 (GeneID 41662)	DRSC21707			9334	5.11e5	inactive
97	CG2691 (GeneID 32320)	DRSC19866			8620	5.31e5	inactive
98	CG14182 (GeneID 40181)	DRSC10181			7648	3.31e5	inactive
99	l(3)62Be (retired record) (GeneID 48504)	DRSC08231			12007	4.99e5	inactive
100	CG18622 (GeneID 42044)	DRSC15360			7324	4.82e5	inactive
101	CG7514 (GeneID 38571)	DRSC08597			6818	4.62e5	inactive
102	CG13202 (GeneID 36222)	DRSC06326			5467	3.60e5	inactive
103	CG13040 (GeneID 39804)	DRSC09921			7666	4.64e5	inactive
104	CG18662 (GeneID 50437)	DRSC02691			7742	3.98e5	inactive
105	CG14013 (GeneID 33786)	DRSC02344			8663	4.32e5	inactive
106	CG3420 (GeneID 35585)	DRSC04995			6523	4.34e5	inactive

Sorted by “stable assay Renilla, run 1 (luminescence)” (descending): 8 of the entries above
Target gene	DRSC id	stable siRNA reporter change	miRNA reporter change	stable assay Renilla, run 1 (luminescence)	stable assay firefly, run 1 (luminescence)	Call
uri (GeneID 37924)	DRSC04111			34725	1.23e6	inactive
c-cup (GeneID 33360)	DRSC00458			9028	6.13e5	inactive
RtcB (GeneID 35220)	DRSC03280			8599	4.55e5	inactive
apn (GeneID 41631)	DRSC15124			7066	5.00e5	inactive
CG11670 (GeneID 41608)	DRSC14342			6558	3.71e5	inactive
CG43737 (GeneID 32448)	DRSC19609			5556	4.03e5	inactive
CG15894 (GeneID 31574)	DRSC18098			5323	4.12e5	inactive
CG15894 (GeneID 31574)	DRSC18099			5160	2.83e5	inactive
